In general, Ki refers to the dissociation constant of the complex between target and ligand, obtained from inhibition or displacement. As usually defined, the Kd is a measure of binding affinity in units of concentration.

Sequences of proteins named here, by UniProt entry; tags and fusion partners are left off. Residues count along the entry.
UniProt P01137, 279-390: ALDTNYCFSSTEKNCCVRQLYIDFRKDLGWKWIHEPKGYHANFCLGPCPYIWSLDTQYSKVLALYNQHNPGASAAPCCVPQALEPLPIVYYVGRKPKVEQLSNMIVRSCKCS
UniProt P61812, 303-414: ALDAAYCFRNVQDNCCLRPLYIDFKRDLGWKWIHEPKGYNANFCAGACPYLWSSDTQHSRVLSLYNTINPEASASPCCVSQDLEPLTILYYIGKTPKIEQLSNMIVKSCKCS

Data set [1] addresses TGFβ1 (transforming growth factor beta 1) (Homo sapiens) (UniProt P01137). Description: activity in cells. To be noted: 2'-F C and U; 3'-3' dT cap; specificity control; purified recombinant protein; protein details: mature 112 aa form, sequence listed in two parts; variant of 21a-21.
The target in data set [2] is T1, TGFβ3 (transforming growth factor beta 3) (Homo sapiens) (UniProt P10600).
T1 sequence: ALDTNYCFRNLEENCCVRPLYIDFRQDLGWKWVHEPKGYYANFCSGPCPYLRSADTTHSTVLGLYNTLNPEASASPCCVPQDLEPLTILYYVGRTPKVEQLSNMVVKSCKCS
Description: activity in cells. The following applies: 2'-F C and U; 3'-3' dT cap; specificity control; purified recombinant protein; protein details: mature 112 aa form, sequence listed in two parts; variant of 21a-21.

Data set [3] deals with T1, TGFβ3 (transforming growth factor beta 3) (Homo sapiens). In words: filter binding. The following applies: 2'-F C and U; specificity control; purified recombinant protein; protein details: mature 112 aa form, sequence listed in two parts.
The target of data set [4] is TGFβ1 (transforming growth factor beta 1) (Homo sapiens) (UniProt P01137). In words: binding assay. To be noted: 3'-3' U, purified recombinant protein, protein details: mature 112 aa form, sequence listed in two parts, variant of CD70 (ChD70).
The target in data set [5] is TGFβ2 (transforming growth factor beta 2) (Homo sapiens) (UniProt P61812). Description: filter binding. To be noted: 2'-F C and U, RNase H product, purified recombinant protein, protein details: mature 112 aa form, sequence listed in two parts, variant of 21a-21.

For part of these data: The comparison behind a weaker result is the experiment's own reference, which may not be listed here. For part of these data: Where a protein sequence is shown, tags need not be part of it. For part of these data: The exact form of at least one protein or probe is not confirmed. For part of these data: Whether high values mean tight binding is not given here for every scale.

“GGAGGUUAUUACAGAGUCUGUAUAGCUGUACUCCCC [NX22283]”: the Ki in data set [1] and in data set [2] was greater than 1000 nM in each case. As to “GGGAGGACGAUGCGGUUCAGGAGGUUAUUACAGAGUCUGUAUAGCUGUACUCCCCAGACGACUCGCCCGA [21a-21]”, the Kd in data set [3] is greater than 30000 nM. As to “GGGUGCCUUUUGCCUAGGUUGUAACCUUCUGCCCA [ChD70-m21]”, the binding result in data set [4] (2'-OMe purines at 1-3, 16-18, 21, 23-24 and 35, PEG linker (spacer 18) replacing loop after position 21) is given as “binds more weakly”. As for “GGGUGCCUUUUGCCUAGGUUGUGAUUUGUAACCUUCUGCCC [ChD70-m19]”, the binding result in data set [4] (2'-OMe purines at 1-3, 16-18, 21, 23-24, 28 and 30-31, 3' terminal A deleted, no bioactivity) is “binds more weakly”. Turning to “GGGUGCCUUUUGCCUAGGUUAACCUUCUGCCCA [ChD70-m22]”, in data set [4] (2'-OMe purines at 1-3, 16-18, 21-22 and 33, PEG linker (spacer 18) replacing loop after position 20), the binding result was “binds”.

Take “GGGAGGACGAUGCGGUUCAGGAGGUUAUUACAGAGUCUGUAUAGCUGUACUCCCCA [21a-21Δ3']”: in data set [5] (3' removal alone eliminates binding (p185), counted as no binding), the binding signal (x Kd of NX22284) came to 100. For the sequence “GGUUCAGGAGGUUAUUACAGAGUCUGUAUAGCUGUACUCCCCAGACGACUCGCCCGA [21a-21Δ5']”, the binding signal (x Kd of NX22284) in data set [5] came to 0.5. For the sequence “GGGUGCCUUUUGCCUAGGUUGUGUAACCUUCUGCCCA [ChD70-m20]”, in data set [4] (2'-OMe purines at 1-3, 16-18, 21, 23, 25-26 and 37, PEG linker (spacer 18) replacing loop after position 22), the binding result is listed as “binds more weakly”.

(Values after patent publication US20040258656.)
